From PMC8880919
These are yes or no findings as the source states them, for the method shown. Binding seen in cells or lysates may run through a third protein. Some entries that bind do so weakly or less than the wild type.

Columns and labels:
Taf2 (S. pombe) = target: T1, Taf2 (S. pombe) (UniProt P87121); assay: co-IP; protein extracts of wild type S. pombe cells expressing chromosomally tagged proteins; 500 ug protein, IP with anti-MYC or anti-FLAG overnight at 4 C, protein A/G sepharose; lysis buffer PBS pH 7.0, 200 mM NaCl, 0.5 mM EGTA, 0.5 mM EDTA, 0.1% Triton X100; five washes at 220 mM NaCl; blots with anti-HA, anti-FLAG or anti-MYC
T1 sequence: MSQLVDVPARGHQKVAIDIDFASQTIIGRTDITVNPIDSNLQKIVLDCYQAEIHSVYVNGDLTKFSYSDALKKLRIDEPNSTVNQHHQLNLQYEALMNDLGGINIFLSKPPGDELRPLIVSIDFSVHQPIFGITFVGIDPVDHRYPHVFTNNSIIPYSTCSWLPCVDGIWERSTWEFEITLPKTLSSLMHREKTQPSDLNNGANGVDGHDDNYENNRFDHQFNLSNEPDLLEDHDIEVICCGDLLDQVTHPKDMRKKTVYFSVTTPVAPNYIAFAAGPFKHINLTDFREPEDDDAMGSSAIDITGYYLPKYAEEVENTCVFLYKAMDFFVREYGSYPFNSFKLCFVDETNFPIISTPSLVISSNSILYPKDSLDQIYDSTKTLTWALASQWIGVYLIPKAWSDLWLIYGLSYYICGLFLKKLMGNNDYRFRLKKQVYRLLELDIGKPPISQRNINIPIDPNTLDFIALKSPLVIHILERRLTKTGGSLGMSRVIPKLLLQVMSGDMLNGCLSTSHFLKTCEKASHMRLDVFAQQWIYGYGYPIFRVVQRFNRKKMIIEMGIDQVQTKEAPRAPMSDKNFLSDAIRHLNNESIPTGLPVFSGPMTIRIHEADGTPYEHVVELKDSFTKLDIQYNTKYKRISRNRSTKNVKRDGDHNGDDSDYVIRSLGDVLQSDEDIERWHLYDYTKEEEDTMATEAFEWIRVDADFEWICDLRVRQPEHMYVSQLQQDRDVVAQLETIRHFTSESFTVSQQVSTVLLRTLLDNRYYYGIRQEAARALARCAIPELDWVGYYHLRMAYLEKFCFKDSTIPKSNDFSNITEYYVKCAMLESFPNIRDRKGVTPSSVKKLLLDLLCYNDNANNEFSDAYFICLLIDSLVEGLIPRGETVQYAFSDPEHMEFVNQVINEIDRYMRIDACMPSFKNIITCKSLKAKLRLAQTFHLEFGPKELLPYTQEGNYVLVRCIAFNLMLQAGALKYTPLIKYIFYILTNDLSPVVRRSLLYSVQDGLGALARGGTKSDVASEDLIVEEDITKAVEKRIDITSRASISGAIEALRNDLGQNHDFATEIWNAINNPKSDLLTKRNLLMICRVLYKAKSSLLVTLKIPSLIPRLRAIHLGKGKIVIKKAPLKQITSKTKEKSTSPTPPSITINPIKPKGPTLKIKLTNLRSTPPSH

Med1 (S. pombe) = target: T2, Med1 (S. pombe) (UniProt Q09696); assay: as above
T2 sequence: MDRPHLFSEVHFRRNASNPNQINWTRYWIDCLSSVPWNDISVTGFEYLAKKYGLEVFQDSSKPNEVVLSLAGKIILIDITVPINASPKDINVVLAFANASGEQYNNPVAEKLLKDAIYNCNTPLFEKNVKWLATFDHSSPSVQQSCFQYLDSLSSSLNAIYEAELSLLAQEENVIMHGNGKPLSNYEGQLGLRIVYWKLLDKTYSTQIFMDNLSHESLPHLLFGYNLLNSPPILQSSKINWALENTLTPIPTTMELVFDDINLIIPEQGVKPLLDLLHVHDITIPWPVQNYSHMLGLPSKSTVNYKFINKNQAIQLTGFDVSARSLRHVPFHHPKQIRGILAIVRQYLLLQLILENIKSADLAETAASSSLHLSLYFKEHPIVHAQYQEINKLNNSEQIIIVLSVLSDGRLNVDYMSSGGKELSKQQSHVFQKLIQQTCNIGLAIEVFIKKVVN

binding (Taf2 (S. pombe)): binds | binding (Med1 (S. pombe)): binds
B1: Gad8 (protein, UniProt Q9P7J8 1-569)
chain: MSWKLTKKLKETHLASAIGLNSGGSSFTRGLKNSTLSSTSSRKSSDEKSRKSSEDKRSPQSTVVQPGLLQVTIIEARNLKLPSGHVPANYGVSIDNSLLAPPLSNGSGHARSRSHAWWLPYIVVEFDKNEILVDALNTASLENPCWDYQATFDVSRYSKLSLNIYLRSSSSRSRNGMGNDAFLGGIKLSPSFIVNKLTDEWVPLHGGSGELRVQMLYKPNQSTPLTIDAFELLKVVGKGSFGKVMQVRKRDTSRIYALKTMKKAHIVSRSEVDHTLAERTVLAQVNNPFIVPLKFSFQSPGKLYLVLAFVNGGELFHHLQREGCFDTYRAKFYIAELLVALECLHEFNVIYRDLKPENILLDYTGHIALCDFGLCKLNMAKTDRTNTFCGTPEYLAPELLLGHGYTKVVDWWTLGVLLYEMITGLPPFYDENINEMYRKILQDPLRFPDNIDEKAKDLLSGLLTRAPEKRLGSGGAQEIKNHPFFDDIDWKKLCAKKIQPPFKPSVESAIDTSNFDSEFTSEIPMDSVVADSHLSETVQQRFANWSYQRPTTIDTSDDINTIAPGSVIR
